# Test results published in paper doi:10.1101/2022.11.01.514535.
# Changes are numbered by the printed parent chain. These are yes or no findings as the source states them, for the method shown. Binding seen in cells or lysates may run through a third protein. A result given as binding can be weak or reduced; the word gives no strength. Tags and fused reporters may be left off the sequences shown.
# Columns and labels:
# [1] = target: T1, FBXL6-Flag (F-box/LRR-repeat protein 6, wild type) (human) (UniProt Q8N531); assay: co-IP
# T1 sequence: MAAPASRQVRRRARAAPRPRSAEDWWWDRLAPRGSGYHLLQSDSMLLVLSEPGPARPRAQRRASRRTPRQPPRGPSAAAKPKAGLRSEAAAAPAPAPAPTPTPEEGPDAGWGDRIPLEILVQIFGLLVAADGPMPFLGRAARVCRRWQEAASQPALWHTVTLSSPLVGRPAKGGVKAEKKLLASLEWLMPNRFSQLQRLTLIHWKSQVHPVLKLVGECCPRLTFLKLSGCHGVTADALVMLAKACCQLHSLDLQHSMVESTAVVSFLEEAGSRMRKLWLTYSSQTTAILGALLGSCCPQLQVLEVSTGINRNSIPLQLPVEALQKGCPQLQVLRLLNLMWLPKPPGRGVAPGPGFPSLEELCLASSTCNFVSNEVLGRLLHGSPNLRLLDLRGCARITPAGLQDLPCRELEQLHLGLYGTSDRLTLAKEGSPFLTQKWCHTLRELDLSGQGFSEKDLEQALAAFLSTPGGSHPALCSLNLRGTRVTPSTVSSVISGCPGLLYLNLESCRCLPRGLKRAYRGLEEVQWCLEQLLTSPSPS
# C497R-FBXL6 flag (human) = target: T2, C497R-FBXL6 flag (human) (UniProt Q8N531); assay: co-IP
# T2 sequence: T1 sequence with C497R
substance,measurement,setting,value
"mitochondrial ribosomal protein L45 (MRPL45), endogenous (human (endogenous in HEK and HeLa))",binding,[1],binds
same,binding,C497R-FBXL6 flag (human),binds
